The full ranking holds about 33,000 sequences; the median of “E-score (-0.5 to 0.5)” is about -8e-05, and the highest 2% start at about 0.23. Some of the results follow.
biological target: T1, Nrg2 (UniProt P38082); experiment: PBM E-score (8-mer binding enrichment) (E-score (-0.5 to 0.5)); higher = stronger / more preferred TF binding; settings: protein concentration: 100 nM; construct: GST-full length
T1 sequence: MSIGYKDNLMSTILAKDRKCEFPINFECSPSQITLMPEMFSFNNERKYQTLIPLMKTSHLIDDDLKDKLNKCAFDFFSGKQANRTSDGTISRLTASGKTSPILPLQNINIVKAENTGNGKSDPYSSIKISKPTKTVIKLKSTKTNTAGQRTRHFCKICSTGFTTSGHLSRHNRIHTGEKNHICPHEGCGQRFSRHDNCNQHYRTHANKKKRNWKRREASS
Method in brief: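 Using PURExpress in vitro transcription/translation, GST-tagged yeast transcription factors were made in full-length or DNA-binding-domain form. These were applied at about 100-200 nM to double-stranded universal all-10-mer Agilent arrays, and bound protein was detected with fluorescent anti-GST. Scans were normalised with masliner before the Universal PBM Analysis Suite assigned E-scores to ungapped eight-base words pooled with their reverse complements.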

Row | Sequence | PBM E-score
1 | AGAAGCAA | 0.156
2 | AGAGATCG | -0.06
3 | AACCGCTC | -0.00049
4 | CTAAGGCC | -0.125
5 | CATGTAAG | 0.0682
6 | GCCTCGCA | 0.0357
7 | AATCCACT | 0.0288
8 | ACGTGTCT | -0.117
9 | CCGAGGAA | -0.00498
10 | CAGTCAGA | 0.0195
11 | CCGTATAA | 0.151
12 | ACAGAGCT | -0.214
13 | CCGGGGGC | -0.377
14 | GACTATAC | 0.105
15 | ACGTTTTA | 0.00368
16 | TACCTTAA | 0.017
17 | ACAAATAG | 0.171
18 | CCCGTTTA | 0.131
19 | CACCCCAA | 0.0637
20 | CCAGGCAG | -0.226
21 | CCCTGCCA | 0.189
22 | AAATCGTT | 0.0869
23 | GGTATTGA | 0.114
24 | AATACACT | 0.0862
25 | GCCTTTAC | -0.0865

Row | Sequence | PBM E-score
26 | GGTCTATA | 0.0742
27 | AGTGGGCC | -0.169
28 | CTTGCCAC | -0.0947
29 | GTTGGGCA | 0.0543
30 | AGTGCTTA | -0.0349
31 | GTGTAAAA | 0.0467
32 | ATTTTAAA | 0.0944
33 | ATGCGGGA | 0.0765
34 | CTCCTATC | -0.136
35 | AAGTAGGT | -0.0619
36 | CGGATTGC | 0.161
37 | AGCGCAAC | 0.153
38 | CACTTCAC | -0.0837
39 | CCATTCCG | -0.0719
40 | ATGTTCTG | 0.0745
41 | TCAAACAA | 0.0877
42 | CTTTGAAC | 0.00817
43 | AAGTCAAG | -0.0115
44 | GCATTAGC | 0.0026
45 | CGGTCGAA | 0.0932
46 | ATTCTCCC | 0.0178
47 | GGACCTCC | -0.12
48 | CAGTCTGA | -0.0255
49 | ACAGAGTA | -0.00075
50 | GGGTACCA | -0.0939

Row | Sequence | PBM E-score
51 | ATCGCCTA | -0.143
52 | ATCCAGAA | 0.028
53 | GAGAAATA | 0.153
54 | AATAAGGC | -0.0132
55 | ATTAAGAA | 0.0555
56 | GTTTTCGA | 0.0644
57 | GGGGTGGA | -0.166
58 | AACGAAAG | -0.0319
59 | CACAAATC | 0.122
60 | CATTGGTC | -0.121
61 | AAAGTTCC | -0.081
62 | GAGCCGGC | -0.0198
63 | TCATGAAA | 0.0629
64 | AGTTTATG | -0.144
65 | ATGTGTCG | 0.0908
66 | CAGTTCGG | -0.0372
67 | CTAAGATA | 0.0976
68 | CACCTCTC | -0.0403
69 | CGTGAGCC | -0.214
70 | ATCAATTA | 0.271
71 | ACTTTCCG | 0.0971
72 | AGCAATAC | 0.12
73 | AGGTGGCG | -0.0682
74 | ACCTTGGG | 0.0344
75 | TGTGTGAA | 0.0142

51 entries from above in another layout:
Row,Sequence,PBM E-score
22,AAATCGTT,0.0869
23,GGTATTGA,0.114
24,AATACACT,0.0862
25,GCCTTTAC,-0.0865
26,GGTCTATA,0.0742
27,AGTGGGCC,-0.169
28,CTTGCCAC,-0.0947
29,GTTGGGCA,0.0543
30,AGTGCTTA,-0.0349
31,GTGTAAAA,0.0467
32,ATTTTAAA,0.0944
33,ATGCGGGA,0.0765
34,CTCCTATC,-0.136
35,AAGTAGGT,-0.0619
36,CGGATTGC,0.161
37,AGCGCAAC,0.153
38,CACTTCAC,-0.0837
39,CCATTCCG,-0.0719
40,ATGTTCTG,0.0745
41,TCAAACAA,0.0877
42,CTTTGAAC,0.00817
43,AAGTCAAG,-0.0115
44,GCATTAGC,0.0026
45,CGGTCGAA,0.0932
46,ATTCTCCC,0.0178
47,GGACCTCC,-0.12
48,CAGTCTGA,-0.0255
49,ACAGAGTA,-0.00075
50,GGGTACCA,-0.0939
51,ATCGCCTA,-0.143
52,ATCCAGAA,0.028
53,GAGAAATA,0.153
54,AATAAGGC,-0.0132
55,ATTAAGAA,0.0555
56,GTTTTCGA,0.0644
57,GGGGTGGA,-0.166
58,AACGAAAG,-0.0319
59,CACAAATC,0.122
60,CATTGGTC,-0.121
61,AAAGTTCC,-0.081
62,GAGCCGGC,-0.0198
63,TCATGAAA,0.0629
64,AGTTTATG,-0.144
65,ATGTGTCG,0.0908
66,CAGTTCGG,-0.0372
67,CTAAGATA,0.0976
68,CACCTCTC,-0.0403
69,CGTGAGCC,-0.214
70,ATCAATTA,0.271
71,ACTTTCCG,0.0971
72,AGCAATAC,0.12

Additional entries:

Row | Sequence | PBM E-score
76 | TCTACAAA | 0.107
77 | ACTTGAGA | 0.0111
78 | AATGTAGT | 0.094
79 | AATCTTAT | -0.0572
80 | AACATGTA | 0.0587
81 | ATGCCCTG | 0.11
82 | CAAGCTTG | -0.0731
83 | GATGCGTA | -0.102
84 | CAGTTCTC | 0.0397
85 | AGAGGAAT | -0.0425
86 | ACATAATC | 0.193
87 | AGACTTTC | 0.0343
88 | CTATCTCA | 0.0251
89 | AAACCCCC | -0.322
90 | ATGAGCCG | -0.138
91 | GAGTTCCC | 0.0556
92 | AGAGTATA | 0.0181
93 | ACCTTCTG | 0.104
94 | ACAGGTCA | -0.163
95 | CTCGGGTA | -0.0916
96 | AAGACCTA | -0.126
97 | ACAGCGCC | 0.00214
98 | AATACGGG | -0.181
99 | CGCCCGTC | 0.0793
100 | GTCGGAAA | 0.234

2 records picked at random from the list so far, as already listed:
Row | Sequence | PBM E-score
63 | TCATGAAA | 0.0629
40 | ATGTTCTG | 0.0745

The list goes on.

Row | Sequence | PBM E-score
101 | GTGTACTA | 0.0211
102 | GTAAGGTA | 0.039
103 | GCGCCGCC | 0.17
104 | ATTCTACG | 0.11
105 | GGGGCTCA | -0.2
106 | ACCGACAA | 0.0162
107 | AAAAAGCG | 0.0651
108 | GCTGTCGA | -0.0651
109 | AAAGAAAT | 0.223
110 | CCCTATCC | 0.0356
111 | CACTTACA | 0.0197
112 | CATTTGAG | 0.155
113 | CACTGCTG | -0.127
114 | ATTCCCCG | -0.00252
115 | AATTTCAT | 0.0846
116 | CGGGACCA | -0.173
117 | AAGTCCCA | -0.0858
118 | AATATTCA | 0.144
119 | CAACAGTA | -0.0361
120 | CTGAGTGA | 0.127
121 | AGTAGATC | -0.0113
122 | AATATAGG | 0.229
123 | CGTGGGAC | 0.0306
124 | CTGGCTCA | 0.0248
125 | TCGAACAA | 0.259

Row | Sequence | PBM E-score
126 | GAAGGAGC | -0.377
127 | ACATCTGG | -0.0515
128 | CCAGGGCG | 0.00949
129 | ATGCCTTG | -0.114
130 | GAATTGAC | 0.163
131 | CTCCACGA | -0.122
132 | AACAAGCC | -0.251
133 | AAAGAGCG | 0.0513
134 | GCCCCACA | 0.0133
135 | GCGGGTCC | -0.0518
136 | CGTCCTTA | -0.0686
137 | GCTATTCC | -0.0857
138 | ACATCAAG | 0.0863
139 | CTGATCCA | 0.156
140 | ATCTATAG | -0.0147
141 | AACTCCGG | 0.123
142 | GAGTGCTA | 0.0892
143 | CGCGCTCC | 0.16
144 | AGTTTGTC | 0.0265
145 | AAATCAAA | 0.0914
146 | TGAACCAA | 0.177
147 | ACGGTATG | -0.0109
148 | AGTTACCG | 0.188
149 | ATCGCTAC | -0.0723
150 | CATATTCG | 0.0131

Row | Sequence | PBM E-score
151 | GCGTATAA | 0.0692
152 | GTAGACAA | 0.0942
153 | GGACTTGA | -0.122
154 | ACGGGCCC | -0.121
155 | CGGACGAA | 0.233
156 | ATTAAACC | 0.199
157 | ATTCTTGG | 0.12
158 | ATCAATGA | 0.0818
159 | AGACCCCT | 0.158
160 | GGCCCACC | -0.072
161 | ACGTACTA | 0.0769
162 | CGATTCTC | 0.0381
163 | GAGGGGAA | -0.0475
164 | CCTACTCC | -0.142
165 | GACCCGCA | -0.0796
166 | GCGCTCCA | -0.0775
167 | ATCCTCCG | -0.144
168 | CGACACTC | -0.00057
169 | GACAATAA | 0.218
170 | CTAGTAAC | 0.00138
171 | CAGCGCGG | 0.0844
172 | ATCGTCGC | 0.158

Copied from the list:
PBM E-score, CGCCCGTC reads 0.0793
PBM E-score, ATCAATGA reads 0.0818

Reference: the supplement of paper PMC3334620
